Square brackets hold non-standard residues; d marks the D form.

42 substances from patent US11332499B2 (Regents of the University of Minnesota, priority 2018, dated 2022) can be followed below.

The nature of the first series: general procedure: Fmoc solid-phase peptide synthesis; H-Pro-2-chlorotrityl resin (0.68 to 0.76 meq/g); HBTU/DIEA; cyclisation with BOP/HOBt. To be noted: whole synthesis, 214 nm, scale of the general procedure 0.05 mmol.
As for c[Pro-Arg-Ine-Ine-Asn-Gly-Phe-DPro], the “final HPLC purity” value was greater than 96%. Still for that read-out and setting: as for c[Pro-Arg-Phe-Phe-Abu-Ala-Phe-DPro], the figure is greater than 98%; as for c[Pro-Arg-Phe-Phe-Ala-Ala-Phe-DPro], greater than 99%. In the case of c[Pro-Arg-Phe-Phe-Asa-Ser-Phe-DPro], the “final HPLC purity” value is recorded as greater than 96%. For the substance c[Pro-Arg-Phe-Phe-Asn-Ala-Phe-DPro], the “final HPLC purity” value was greater than 99%.

Turning to c[Pro-Arg-Phe-Phe-Asn-Phe-The-DPro], the “final HPLC purity” value was greater than 97%.

Take c[Pro-Arg-Phe-Phe-Asp-Ala-Phe-DPro]: the “final HPLC purity” value was greater than 99%. Regarding c[Pro-Arg-Phe-Phe-DDap-Ala-Phe-DPro], the “final HPLC purity” value is reported as greater than 95%. As to c[Pro-Arg-Phe-Phe-Dap-Ala-Phe-DPro], the “final HPLC purity” value is greater than 98%. Regarding c[Pro-Arg-Phe-Phe-Glu-Ala-Phe-DPro], the “final HPLC purity” value is recorded as greater than 99%. As to c[Pro-Arg-Phe-Phe-His-Ala-Phe-DPro], the “final HPLC purity” value is on record as greater than 96%. In the case of c[Pro-Arg-Phe-Phe-Nle-Ala-Phe-DPro], the “final HPLC purity” value is listed as greater than 99%. As for c[Pro-Arg-Phe-Phe-Phe-Ala-Phe-DPro], the “final HPLC purity” value is greater than 98%.

On to c[Pro-Arg-Phe-Phe-Ser-A1a-Phe-DPro], for which the “final HPLC purity” value is reported as greater than 99%. The same measure, in the same setting: as for c[Pro-Arg-Phe-Phe-Val-Ala-Phe-DPro], the figure is greater than 99%; as for c[Pro-Arg-Ptie-Phe-Asn-His-Phe-DPro], greater than 99%; as for cyclo(PRFFLAF[dP]), greater than 99%. cyclo(PRFFNAA[dP]): the “final HPLC purity” value was greater than 97%.

cyclo(PRFFNDF[dP]): the “final HPLC purity” value is listed as greater than 99%.

For cyclo(PRFFNEF[dP]), the “final HPLC purity” value is on record as greater than 98%.

cyclo(PRFFNKF[dP]): the “final HPLC purity” value is reported as greater than 99%. On the same count and under the same terms, as for cyclo(PRFFNLF[dP]), the figure is greater than 98%; as for cyclo(PRFFTAF[dP]), greater than 99%; as for cyclo(PRFFWAF[dP]), greater than 97%.

Staying with this series, now noted: whole synthesis, 214 nm, scale of the general procedure 0.05 mmol, TFA salt.
c[Pro-Arg-Phe-Phe-Asn-Ala-Cha-DPro]: the “final HPLC purity” value is reported as greater than 98%. With c[Pro-Arg-Phe-Phe-Asn-Ala-Gly-DPro], the “final HPLC purity” value was greater than 95%. Take c[Pro-Arg-Phe-Phe-Asn-Ala-Leu-DPro]: the “final HPLC purity” value is on record as greater than 98%. As for c[Pro-Arg-Phe-Phe-Asn-Ala-Lys-DPro], the “final HPLC purity” value is recorded as greater than 98%. Regarding c[Pro-Arg-Phe-Phe-Asn-Ala-Nle-DPro], the “final HPLC purity” value is greater than 95%. c[Pro-Arg-Phe-Phe-Asn-Ala-Ser-DPro]: the “final HPLC purity” value is greater than 98%. Turning to c[Pro-Arg-Phe-Phe-Asn-Ala-Trp-DPro], the “final HPLC purity” value is reported as greater than 98%. Turning to c[Pro-Arg-Phe-Phe-Asn-Ala-Tyr-DPro], the “final HPLC purity” value is greater than 98%.

On to c[Pro-Arg-Phe-Phe-Asn-Ala-hPhe-DPro], for which the “final HPLC purity” value is reported as greater than 98%. Same read-out and setting: as for cyclo(PRFFNAD[dP]), the figure is greater than 95%.

The same series, now with this note: whole synthesis, analytical RP-HPLC, two solvent systems, 214 nm, scale of the general procedure 0.05 mmol.
For c[Pro-Arg-DPhe-DPhe-Asn-Ala-Phe-DPro], the “final HPLC purity” value is on record as greater than 98%.

For c[Pro-Arg-DPhe-Phe-Asn-Ala-Phe-DPro], the “final HPLC purity” value is greater than 99%. Consider c[Pro-Arg-Phe-DPhe-Asn-Ala-Phe-DPro], for which the “final HPLC purity” value was greater than 99%. Turning to c[Pro-DArg-DPhe-DPhe-Asn-Ala-Phe-DPro], the “final HPLC purity” value is on record as greater than 99%. As to c[Pro-DArg-DPhe-Phe-Asn-Ala-Phe-DPro], the “final HPLC purity” value is listed as greater than 96%.

For c[Pro-DArg-Phe-DPhe-Asn-Ala-Phe-DPro], the “final HPLC purity” value is given as greater than 99%. Regarding c[Pro-DArg-Phe-Phe-, the “final HPLC purity” value is on record as greater than 95%.

Consider c[Pro-DArg-Phe-Phe-Asn-Ala-Phe-DPro], for which the “final HPLC purity” value was greater than 97%.
